# PubChem BioAssay AID504444 (National Center for Advancing Translational Sciences (NCATS), 2011)
# Hit rate of the full screen: of about 360,000 compounds, about 7,500 (2.1%) were called active. The shares of active, inactive and inconclusive entries below differ from those in the screen. The call rests on the fitted dose curve; in most records, active means well fitted inhibition curve with a large enough effect; inconclusive means small, poorly fitted or top-dose-only effect, or effect the other way; inactive means flat fitted curve, though single readings scatter. Potencies of inconclusive entries are doubtful fits and often do not repeat.
# Assay: Nrf2 qHTS screen for inhibitors; further: nearly all actives have a fitted effect of over 60% in size
# Details: A549 ARE-Fluc reporter, luciferase luminescence, 18-24 h; series mostly up to 46 µM
# Procedure, shortened: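 A549 ARE_Fluc cells (5000/well, 5% FBS OPTI-MEM) pre-incubated 2 h, then treated with compounds 18-24 h at 37C/5% CO2 in concentration-response. CellTiter-Fluor viability read first; BugLite luciferase luminescence after 15 min at room temperature gives Nrf2 activity.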
# Potency means the concentration at half of the fitted maximal effect.
row,Structure (SMILES),Potency
1,CCCCC(=O)Nc1ccc(C(=O)Nc2ccc(OC)cc2[N+](=O)[O-])cc1,active: 20.6 µM
2,N=c1c(S(=O)(=O)c2ccc(Br)cc2)cc2c(=O)n3ccccc3nc2n1Cc1ccccc1,"inconclusive: 2.31 µM [activator, full curve]"
3,O=C(Nc1cccc(Cl)c1)c1ccc(-n2cncn2)c([N+](=O)[O-])c1,"inconclusive: 20.6 µM [falling, partial curve, poor fit]"
4,O=C(CN1C(=O)COc2ccccc21)N1CCCc2ccccc21,active: 23.1 µM
5,Cc1cccc(NC(=O)/C(C#N)=C/c2ccc(F)cc2)n1,"inconclusive: 0.164 µM [falling, full curve, poor fit]"
6,CC1CCCC(C)N1C(=O)CSc1nc2ccccc2s1 (stereo not drawn),"inconclusive: 16.4 µM [activator, partial curve]"
7,c1ccc2[nH]c(CSc3nccs3)nc2c1,"inconclusive: 29.1 µM [activator, single point]"
8,COc1ccc(-c2csc(NC(=O)c3ccc(S(=O)(=O)N4CCc5ccccc5C4)cc3)n2)cc1,active: 5.17 µM
9,COc1ccc(C(=O)NCCSC2CCCCC2)cc1,"inconclusive: 0.651 µM [activator, full curve]"
10,Fc1ccccc1-c1nc(-c2ccncc2)no1,"inconclusive: 18.4 µM [activator, partial curve]"
11,CCn1c(SCC(=O)Nc2cc(C(C)(C)C)nn2-c2ccccc2)nnc1-c1cccs1,"inconclusive: 16.4 µM [falling, single point]"
12,O=S(=O)(c1ccccc1F)N1CCN(CCOc2ccccc2)CC1,"inconclusive: 10.3 µM [falling, partial curve, poor fit]"
13,CCOC(=O)C1=C(N)OC2=C(C(=O)CCC2)C1c1cccs1 (stereo not drawn),"inconclusive: 0.0052 µM [falling, full curve, poor fit]"
14,CCOc1ccc(NC(=O)[C@@H]2CCC(=O)N2C2OC(=O)c3ccccc32)cc1 (stereo partly drawn),inactive
15,CN1CCc2c(sc3c2C(=O)NC(c2ccco2)N3)C1 (stereo not drawn),inactive
16,COc1ccc(OC)c(CN2CCN(c3ccc(S(=O)(=O)N4CCCC4)cn3)CC2)c1,"inconclusive: 18.4 µM [falling, single point]"
17,O=C1CSC(c2cn(-c3ccccc3)nc2-c2cc3ccccc3oc2=O)N1Cc1ccccc1 (stereo not drawn),"inconclusive: 29.1 µM [falling, single point]"
18,CC(C)NC(=S)NC(c1ccccc1)(c1ccccc1)c1ccccc1,"inconclusive: 29.1 µM [falling, single point]"
19,Cc1cccc(N2CCN(C(=O)c3cnn(-c4ccccc4)c3C3CCN(C(=O)OC(C)(C)C)CC3)CC2)c1C,inactive
20,Cc1cccc(OCc2nnc(-c3ccc(F)cc3)o2)c1,"inconclusive: 20.6 µM [activator, partial curve, poor fit]"
21,Cc1cccc(C(=O)Nc2ccc(N3CCN(C(=O)c4ccco4)CC3)cc2)c1,"inconclusive: 18.4 µM [falling, partial curve, poor fit]"
22,COc1ccc(CNC(=O)C(=O)NCC(c2cccnc2)N2CCN(c3ccccc3)CC2)cc1 (stereo not drawn),inactive
23,Cc1cccc2[nH]c3c(N4CC=C(c5ccc(F)cc5)CC4)ncnc3c12,active: 20.6 µM

row,Structure (SMILES),Potency
1,CCOC(=O)N1CCN(c2cc3nccnc3cc2F)CC1,inactive
2,COc1cccc(Cn2c(=O)n(Cc3ccccc3)c(=O)c3c2c2cc(OC)ccc2n3C)c1,inactive
3,O=C1C=C(N2CCOCC2)CCC1,"inconclusive: 29.1 µM [activator, single point]"
4,Cc1onc(-c2ccccc2)c1C(=O)NNC(=S)NC(=O)c1ccc(F)cc1,"inconclusive: 25.9 µM [falling, single point]"
5,Cc1cc2[nH]c(=O)c(=O)[nH]c2cc1S(=O)(=O)N1CCN(c2ccccc2F)CC1,"inconclusive: 11.6 µM [activator, partial curve]"
6,Cc1ccc(NC(=O)CCC(=O)N/N=C/c2ccc([N+](=O)[O-])o2)cc1C,"inconclusive: 29.1 µM [falling, single point]"
7,COc1ccc(CCNC(=O)C2CCN(S(=O)(=O)c3ccc(Cl)cc3)CC2)cc1OC,"inconclusive: 32.6 µM [falling, partial curve, poor fit]"
8,Cc1ccc2c(c1)C(c1ccncc1)=NNC(c1ccccc1)=N2,inactive
9,CC1=C(c2ccc(Cl)cc2)S(=O)(=O)N=C1N1CCN(c2cc(C)ccc2C)CC1,"inconclusive: 7.31 µM [falling, partial curve, poor fit]"
10,COc1ccc(/C=C(/C#N)C(=O)Nc2cc(C)ccc2C)cc1C(=O)O,inactive
11,O=C(Nc1ccc(N2CCCCC2)c(S(=O)(=O)Nc2ccccc2Cl)c1)c1cccnc1,"inconclusive: 23.1 µM [falling, partial curve, poor fit]"
12,Cc1ccc(NC(=S)NNC(=O)c2ccccc2O)c(C)c1,"inconclusive: 29.1 µM [activator, single point]"
13,COCC(=O)N1CCC(Oc2ccc(C(=O)NCCCC3CCCC3)cc2)CC1,"inconclusive: 14.6 µM [falling, partial curve, poor fit]"
14,COC(=O)Cn1ncc2c3ccccc3n(Cc3ccccc3)c2c1=O,"inconclusive: 29.1 µM [falling, single point]"
15,CCOC(=O)N1CCC(N(CCN(C)C)C(=S)Nc2ccc(Oc3ccccc3)cc2)CC1,"inconclusive: 18.4 µM [activator, single point]"
16,CCN(C(=O)C(NS(=O)(=O)c1ccc(Br)s1)c1ccccc1)c1ccc(C)c(C)c1 (stereo not drawn),"inconclusive: 18.4 µM [falling, single point]"
17,Cc1ccc(C)c(N2CCN(c3ccc4cc(S(=O)(=O)N5CCCCC5)ccc4n3)CC2)c1,"inconclusive: 5.8 µM [falling, full curve, poor fit]"
18,COc1ccc(S(=O)(=O)N2CCN(CCc3ccccc3)CC2)c(OC)c1,active: 16.4 µM
19,COc1ccc(C2=NOC(CNC(N)=S)C2)cc1 (stereo not drawn),"inconclusive: 2.06 µM [activator, single point]"
20,COc1ccc(OC)c(/C=N/NC(=O)CCCC(=O)Nc2cccc(Br)c2)c1,"inconclusive: 29.1 µM [falling, single point]"
21,CCCCCCNC(=O)c1cc(-c2ccco2)nc2ccccc12,inactive
22,Cc1csc2nc(NC(=O)c3ccccc3)sc(=O)c12,"inconclusive: 8.2 µM [activator, partial curve, poor fit]"
23,COc1ccc(C2C(C(=O)N3CCN(c4ccccc4)CC3)c3ccccc3C(=O)N2C)cc1OC (stereo not drawn),inactive

# Single values from the results shown.
# In Potency, CC1=C(c2ccc(Cl)cc2)S(=O)(=O)N=C1N1CCN(c2cc(C)ccc2C)CC1 is listed with inconclusive: 7.31 µM [falling, partial curve, poor fit]
# In Potency, COc1ccc(C2C(C(=O)N3CCN(c4ccccc4)CC3)c3ccccc3C(=O)N2C)cc1OC (stereo not drawn) is listed with inactive
# In Potency, Cc1cc2[nH]c(=O)c(=O)[nH]c2cc1S(=O)(=O)N1CCN(c2ccccc2F)CC1 is listed with inconclusive: 11.6 µM [activator, partial curve]
# In Potency, CCOC(=O)N1CCN(c2cc3nccnc3cc2F)CC1 is listed with inactive

# The results go on.

row,Structure (SMILES),Potency
1,COc1cccc(NC(=S)NCc2cccs2)c1,"inconclusive: 29.1 µM [activator, single point]"
2,CN(C(=O)c1ccoc1)c1ccc2ccccc2c1,"inconclusive: 11.6 µM [falling, partial curve, poor fit]"
3,CC(=O)c1ccc(N2CCC(c3cc(-c4ccc(Cl)cc4Cl)n[nH]3)CC2)c([N+](=O)[O-])c1,active: 16.4 µM
4,Cc1cc(NC(=O)NC(=O)c2ccccc2NC(=O)CN)ccc1Oc1ncc(Br)cn1,inactive
5,CN(C)c1ccc(/C=C2\SC(=O)N(CCc3nnc(N)s3)C2=O)cc1,inactive
6,COC(=O)c1c(NC(=O)c2ccc(C(C)(C)C)cc2)sc2c1CCC(C)C2 (stereo not drawn),inactive
7,O=C(NNc1ccccc1C(F)(F)F)c1sccc1Cl,inactive
8,O=C(Nc1ccc(Cl)cc1)Nc1nnc(SCc2ccccc2)s1,inactive
9,CCN(CC)CCNC(=O)c1ccc(NC(=O)c2cc(-c3ccco3)nc3ccccc23)cc1,"inconclusive: 18.4 µM [activator, single point]"
10,C[C@@H](C(=O)NCCc1ccc(F)cc1)N1C(=O)N2CCc3c([nH]c4ccccc34)[C@@]2(C)C1=O,"inconclusive: 18.4 µM [falling, single point]"
11,COc1cc(C2CC(=O)c3c([nH]c(C(=O)OC4CCCC4)c3C)C2)cc(OC)c1OC (stereo not drawn),active: 5.8 µM
12,Cc1ccc(NC(=S)c2ccc3ccccc3n2)c(C)c1,"inconclusive: 2.91 µM [activator, partial curve]"
13,Clc1ccc(-c2cn3cc(Cc4ccccc4)sc3n2)cc1,"inconclusive: 0.259 µM [activator, full curve, poor fit]"
14,CCOC(=O)N1CCN(C(=O)CSCc2nc(-c3ccccc3F)oc2C)CC1,"inconclusive: 5.17 µM [falling, full curve]"
15,Cc1ccc(OCCC(=O)NCCc2ccc(S(N)(=O)=O)cc2)cc1,inactive
16,Cc1cc(C(=O)N2CCC(Cc3ccccc3)CC2)ccc1[N+](=O)[O-],"inconclusive: 25.9 µM [falling, single point]"
17,N#Cc1ccc(NC(=O)c2cccs2)nc1,"inconclusive: 2.31 µM [activator, full curve]"
18,NS(=O)(=O)c1ccc(CCNC(=O)C2CCCCN2S(=O)(=O)c2ccccc2)cc1 (stereo not drawn),"inconclusive: 6.51 µM [activator, single point]"
19,COc1ccc(C(=O)Nc2ccc(S(=O)(=O)Nc3ncccn3)cc2)cc1OC,"inconclusive: 2.59 µM [activator, single point]"
20,Cc1ccc(NC(=O)C2CCN(S(=O)(=O)c3ccc4c(c3)NC(=O)C(C)S4)CC2)cc1Cl (stereo not drawn),active: 1.3 µM
21,CN(C)S(=O)(=O)c1cccc(NC(=O)c2ccc(COc3ccccc3)cc2)c1,"inconclusive: 23.1 µM [falling, single point]"
22,Cc1cc(NC(=O)COC(=O)c2nccnc2N)n(-c2ccccc2)n1,inactive
